PubChem BioAssay AID445 (National Center for Advancing Translational Sciences (NCATS), 2006)
The list shows a part of the results. Further columns of the screen follow, without active or inactive calls. Compounds called inactive in the main read-out are mostly missing here. Words in brackets tell the shape of the fitted curve; partial curves, single points and poor fits give uncertain potencies.

Experiment: IkB Signaling
Conditions: ABC-DLBCL IkBa-CBG/CBR dual luciferase ratio (green luciferase fused to IkBa over red control in OCI-Ly3 lymphoma cells), 4 h
Procedure, shortened: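 Luminescence ratio of IκBα-fused green versus native red beetle luciferase in OCI-Ly3 cells, 4 h post-doxycycline with compound; red signal alone, scaled from basal (0%) to zero light (-100%), flagged nonspecific or cytotoxic effects.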

[1] = measured here: control luc red channel unless noted

C[C@@H](C(=O)O)c1ccc(N2Cc3ccccc3C2=O)cc1
AC50 [1]: 12.6 µM [falling, partial curve]

COc1ccc2c(c1)c1c(c(=O)n(CCc3ccccc3)c(=O)n1Cc1cccc(Cl)c1)n2C
AC50 [1]: 12.6 µM [falling, partial curve]

Cc1ccccc1OCCCC(=O)Nc1nccs1
AC50 [1]: 25.1 µM [falling, partial curve]

CCOc1ccccc1Nc1ncnc2c1cnn2-c1ccc(C)cc1
AC50 [1]: 25.1 µM [falling, partial curve]

CC1CN(C(=O)N2CCC(C(=O)NCCCc3ccccc3)CC2)c2cc(Cl)ccc2O1 (stereo unspecified)
AC50 [1]: 25.1 µM [falling, single point]

CCOc1ccc(CNC(=O)c2ccc3oc(=O)n(Cc4ccccc4)c3c2)cc1
AC50 [1]: 15.8 µM [falling, partial curve]

CC(C)c1c(C#N)c(N)nc(SCC(=O)c2cc3ccccc3oc2=O)c1C#N
AC50 [1]: 3.98 µM [falling, partial curve]

COc1ccc(CCNC(=O)CCc2c(C)nc3c4c(C)cc(C)nc4nn3c2C)cc1OC
AC50 [1]: 20 µM [falling, single point]

CC1(C)Cc2c(sc3c2c(=N)n(Cc2ccco2)c(=O)n3Cc2ccccc2)CO1
AC50 [1]: 20 µM [falling, single point]

Cc1ccc(Cn2nnc3c(=O)[nH]c(C4CCN(C(=O)Cc5ccccc5F)CC4)nc32)cc1
AC50 [1]: 39.8 µM [falling, single point]

CC(=O)c1c(C)oc2ccc(N(C(=O)Oc3ccccc3)S(=O)(=O)c3ccc(Cl)cc3)cc12
AC50 [1]: 31.6 µM [falling, single point]

CCc1cccc(NS(=O)(=O)c2c(C)[nH]c(=O)[nH]c2=O)c1
AC50 [1]: 3.98 µM [falling, partial curve]

O=C(Nc1ccc(Nc2ccccc2)cc1)c1ccc(Br)o1
AC50 [1]: 12.6 µM [falling, partial curve]

COc1ccc2c(c1)cc(CNc1ccc(OC)c(OC)c1)c(=O)n2CC(=O)Nc1ccccc1C
AC50 [1]: 25.1 µM [falling, partial curve, poor fit]

CCCNc1nc2c(c(=O)n(C)c(=O)n2C)n1CCc1ccccc1
AC50 [1]: 15.8 µM [falling, partial curve]

Cc1nc2ccccc2c(=O)n1/N=C/c1cn(-c2ccccc2)nc1-c1cccs1
AC50 [1]: 12.6 µM [falling, partial curve]

Cc1ccc(S(=O)(=O)Nc2cccc(-c3ccc(N4CCC(C)CC4)nn3)c2)s1
AC50 [1]: 10 µM [falling, partial curve]

Cc1ccc(NCc2cccn2-c2nnc(N3CCC(C(=O)NCCc4ccc(Cl)cc4)CC3)s2)cc1
AC50 [1]: 7.94 µM [falling, partial curve]

CC(C)(C)NC(=O)COC(=O)c1snc(C(=O)NC2CCCCC2)c1N
AC50 [1]: 3.98 µM [falling, partial curve]

CCc1nn2c(=O)cc(COC(=O)c3cccc(NC(=O)CCc4ccccc4)c3)nc2s1
AC50 [1]: 0.398 µM [falling, full curve]

COc1ccccc1CNC(=O)C1CCN(c2nc3ccc(Cl)cc3[nH]2)CC1
AC50 [1]: 31.6 µM [falling, single point]

O=C(Nc1ncc(Br)s1)C(Cc1ccccc1)n1cccc1 (stereo unspecified)
AC50 (measured here: IkB-luc green channel): 12.6 µM [falling, partial curve] | AC50 (measured here: control luc red channel): 10 µM [falling, partial curve]

COc1cc2c(=O)n(CCC(=O)NCC3CCCO3)c(=O)n(CC(=O)Nc3ccccc3C)c2cc1OC (stereo unspecified)
AC50 [1]: 5.01 µM [falling, partial curve]

CCCCOc1ccc(CNC(=O)c2cccc(NC(=O)N3CCSc4ncccc43)c2)cc1
AC50 [1]: 15.8 µM [falling, partial curve]

COc1ccc(-n2ncc3c(NCCCOC(C)C)ncnc32)cc1
AC50 [1]: 31.6 µM [falling, partial curve]

O=C(CCc1nc(CN2CCN(S(=O)(=O)c3ccc(Br)cc3)CC2)no1)N1CCCCC1
AC50 [1]: 20 µM [falling, single point]

COc1cc2cc(CNc3ccccc3)c(=O)n(CC(=O)Nc3cccc(Cl)c3C)c2cc1OC
AC50 [1]: 25.1 µM [falling, single point]

Cc1cccc(N2CCN(C(c3ccccc3)c3nnnn3CC3CCCO3)CC2)c1C (stereo unspecified)
AC50 [1]: 20 µM [falling, partial curve]

Cc1ccccc1Cn1cc(S(=O)(=O)CC(=O)Nc2nccs2)c2ccccc21
AC50 [1]: 10 µM [falling, partial curve]

Cc1cccc(N2C(=O)CC(N(O)c3ccccc3)C2=O)c1 (stereo unspecified)
AC50 [1]: 12.6 µM [falling, partial curve]

Cc1ccc(-n2c3c(cc(C(=O)Nc4ccccc4C(N)=O)c2=O)C(=O)CC(C)(C)C3)cc1
AC50 [1]: 10 µM [falling, partial curve]

CCOc1ccccc1NC(=O)c1c(NC(=O)COc2ccccc2)sc2c1CCCC2
AC50 [1]: 12.6 µM [falling, partial curve]

COc1ccc(C2=Nc3ccccc3NC(c3cccs3)=N2)cc1
AC50 [1]: 25.1 µM [falling, single point]

O=C1CC(c2ccccc2)Sc2ccccc2N1Cc1ccc(F)cc1 (stereo unspecified)
AC50 [1]: 20 µM [falling, partial curve]

CC(C)(C)C(=O)CSc1nccc(=O)[nH]1
AC50 [1]: 31.6 µM [rising, single point]

CCCc1cc(=O)[nH]c(Nc2cc(C)ccc2OC)n1
AC50 [1]: 0.794 µM [falling, partial curve]

CC(Sc1nnc2ccc3ccccc3n12)C(=O)Nc1ccc(Cl)cc1 (stereo unspecified)
AC50 [1]: 3.16 µM [falling, partial curve]

COc1ccccc1NC(=O)Cn1c(SCC(=O)Nc2ccc(F)cc2)nc2ccccc21
AC50 [1]: 12.6 µM [falling, partial curve]

Cc1nc2ccn(Cc3ccccc3)c(=O)c2cc1C(=O)N1CCN(c2ccc(F)cc2)CC1
AC50 [1]: 31.6 µM [falling, single point]

O=S(=O)(c1ccc(N2CC=C(c3ccccc3)CC2)nc1)N1CCCC1
AC50 [1]: 39.8 µM [rising, single point] [measured here: IkB-luc green channel]
